Data: article doi:10.1101/2025.04.16.649111
These are yes or no findings as the source states them, for the method shown. Binding seen in cells or lysates may run through a third protein. Some results given as binding are weak or reduced against the parent protein; the word gives no strength.

Chains of the proteins cited; added tags and fusions are not shown.
UniProt P21707, whole entry: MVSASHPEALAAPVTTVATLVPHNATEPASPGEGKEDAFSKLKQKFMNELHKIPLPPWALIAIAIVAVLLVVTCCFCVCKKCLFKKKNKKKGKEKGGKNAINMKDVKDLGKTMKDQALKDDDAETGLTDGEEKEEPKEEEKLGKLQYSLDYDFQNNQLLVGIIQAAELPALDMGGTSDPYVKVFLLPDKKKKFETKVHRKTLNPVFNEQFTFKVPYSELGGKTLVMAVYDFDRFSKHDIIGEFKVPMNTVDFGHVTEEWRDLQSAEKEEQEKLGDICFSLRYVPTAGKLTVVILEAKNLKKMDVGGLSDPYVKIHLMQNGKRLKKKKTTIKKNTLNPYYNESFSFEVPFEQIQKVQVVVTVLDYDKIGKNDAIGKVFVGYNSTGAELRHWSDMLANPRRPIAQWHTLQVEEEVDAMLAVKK

Target: endogenous Synaptotagmin 1 of primary hippocampal neurons (rat) (rat (endogenous in hippocampal neurons)) (UniProt P21707)
Test: proximity ligation

binding: binds
B1: ciliary neurotrophic factor receptor (Cntfr) (receptor, UniProt Q08406 23-342)
chain: QKHSPQEAPHVQYERLGTDVTLPCGTASWDAAVTWRVNGTDLAPDLLNGSQLILRSLELGHSGLYACFHRDSWHLRHQVLLHVGLPPREPVLSCRSNTYPKGFYCSWHLSAPTYIPNTFNVTVLHGSKMMVCEKDPALKNRCHIRYMHLFSTIKYKVSISVSNALGHNTTAITFDEFTIVKPDPPENVVARPVPSNPRRLEVTWQTPSTWPDPESFPLKFFLRYRPLILDQWQHVELSNGTAHTITDAYAGKEYIIQVAAKDNEIGTWSDWSVAAHATPWTEEPRHLTTEAQAPETTTSTTSSLAPPPTTKICDPGELSS
